B1: KH12 (antibody, mouse IgG2a, kappa, V domains shown)
VH: DVQLQESGPDLVKPSHSFSLTCTVTGYSITRGYSWHWIRQFPGNKLEWMGYIHYSGNTNYNPSLKSRFSFTRDTSKNQFFLNLTSLTSEDTATYYCSRGSTWAFDHWGQGTILTVSS
VL: DIVMSQSPSSLTVSVGEKVTMSCKSSQSLLYSSDQKNYLTWYQQKPGQSPKLLIYWASTRYSGVPDRFTGSGSGTDFTLTISSVKAEDLAVYYCQQYYIYPFTFGSGTKLEIKR
B2: KH16 (antibody, mouse IgG2a, kappa, V domains shown)
VH: DVQLQESGPDLVKPSQSLSLTCTVTGYSITSGYTWHWIRQFPGNKLEWMGYIQYSGSTNYNPSLKSRISFTRDTSKNQFFLQLNSVTTEDTATYYCARGTTGGLDYWGQGTTLTVSS
VL: DIVMSQSPSSLTVSVGEKITMSCKSSQSLLYSSDQKNYLAWYQQNPGQSPKLLIYWASTKASGVPDRFTGSGSGTDFTLTISSVKAEDLAVYYCQQYYIYPLTFGSGTKLEIKR
B3: KH02 (antibody, mouse IgG2a, kappa, V domains shown)
VH: DVQLQESGPDLVKPSHSLSLTCTVTGYSITRGYSWHWIRQFPGNKLEWMGYIHYSGSTNYNPSLKSRISFTRDTSKNQFFLNLTSLTSEDTATYYCSRGSTWAFDHWGQGTILTVSS
VL: DIVMSQSPSSLAVSVGEKITMSCKSSQSLLYSNNQKNYLAWYQQIPGQSPKLLIYLASTRESGVPDRFTGSGSGTDFTLTISSVKAEDLAVYYCQQYFIYPMSFGSGTKLEIKR
B4: KH27 (antibody, mouse IgG2b, kappa, V domains shown)
VH: DVQLQESGPDLVKPSQSLSLTCTVTGYSITRGYTWHWIRQFPGNKLEWMGYIQFSGSTKYNPSLKSRFSITRDTSKNQFFLQLNSVTTEDTATYYCARGTTTALDYWGQGTSVTVSS
VL: DIVMSQSPSSLAVSIGEKVTMNCQSSQSLLYSSNQKNYLVWYQQKPGQSPKLLIHWASTRESGVPDRFTGSGSGTDFTLTISSVKAEDLAVYYCQQYYIYPFTFGSGTKLEIKR
B5: KH13 (antibody, mouse IgG2a, kappa, V domains shown)
VH: DVQLQESGPDLVKPSHSFSLTCTVTGYSITRGYSWHWIRQFPGNKLEWMGYIHYSGNTNYNPSLKSRFSFTRDTSKNQFFLNLTSLTSEDTATYYCSRGSTWAFDHWGQGTILTVSS
VL: DIVMSQSPSSLAVSVGEKITMNCKSSQSLLYSNNQKNYLAWYQQIPGQSPKLLIYLASTRESGVPDRFTGSGSGTDFTLTISSVKAEDLAVYYCQQYFLYPMSFGSGTKLEIKR
B6: KH17 (antibody, mouse IgG2a, kappa, V domains shown)
VH: DVQLQESGPDLVKPSQSLSLTCTVTGYSITSGYTWHWIRQFPGNKLEWMGYTQYSGSTNYNPSLKSRISFTRDTSKNQFFLQLNSVTTEDTATYYCARGTTGGLDYWGQGTTLTVSS
VL: DIVMSQSPSSLTVSVGEKITMSCKSSQSLLYSSDQKNYLAWYQQNPGQSPKLLIYWASTKASGVPDRFTGSGSGTDFTLTISSVKAEDLAVYYCQQYYIYPLTFGSGTKLEIKR
B7: KH01 (antibody, mouse IgG2a, kappa, V domains shown)
VH: DVQLQESGPDLVKPSQSLSLTCTVTGHSITRGYSWHWIRQFPGNKLEWMGYIHHRGTTNYNPSLKSRISFTRDTSKNQFFLQLNSLTTEDTATYFCSRGTNSAFDYWGQGTTLTVSS
VL: DIQMTQTTSSLSASLGDRVTISCRASQDISNYLNWYQQKPDGTVKLLIYYTSRLHSGVPSRFSGSGSGTDYSLTISNLEQEDIATYFCQQGNTLPHTFGGGTKLEIKR
B8: KH20 (antibody, mouse IgG2b, kappa, V domains shown)
VH: DVQLQESGPDLVKPSQSLSLTCTVTGHSITNGYSWHWIRQFPGNKLEWMGYIHHSGSTNYNPSLKSRISFTRDTSKNQFFLQLNSLTTEDTATYYCLRGTDRSFDYWGQGTTLTVSS
VL: DIVMSQSPSSLVVSVGEKISMSCKSSQSLLYSNNQKNYLAWYQQIPGQSPKLLIYWASTRESGVPDRFTGSGSGTDFTLTISSVKAEDLAVYYCQQYYIYPLTFGSGTKLEIKR
B9: KH03 (antibody, mouse IgG2a, kappa, V domains shown)
VH: DVQLQESGPDLVKPSQSLSLTCTVTGHSITRGYSWHWIRQFPGNKLEWMGYIHHRGSTNYNPSLKSRISFTRDTSKNQFFLQLNSLTTEDTATYFCSRGTNSAFDYWGQGTTLTVSS
VL: DIVMSQSPSSLTVSVGEKITMSCKSSQSLLYSSDQKNYLAWYQQNPGQSPKLLIYWASTRASGVPDRFTGSGSGTDFTLTISSVKAEDLAIYYCQQYYIYPLTFGSGTKLEIKR
B10: KH18 (antibody, mouse IgG2a, kappa, V domains shown)
VH: DVQLQESGPDLVKPSQSLSLTCTVTGHSITRGYSWHWIRQFPGNKLEWMGYIHHRGTTNYNPSLKSRISFTRDTSKNQFFLQLNSLTTEDTATYFCSRGTNSAFDYWGQGTTLTVSS
VL: DIVMSQSPSSLTVSVGEKITMSCKSSQSLLYSSDQKNYLAWYQQNPGQSPKLLIYWASTKASGVPDRFTGSGSGTDFTLTISSVKAEDLAVYYCQQYYIYPLTFGSGTKLEIKR
B11: KH22 (antibody, mouse IgG2b, kappa, V domains shown)
VH: DVQLQESGPDLVKPSQSLSLTCTVTGHSITSGYTWHWIRQFPGNKLEWMGYIHHSGATNYNPSLKSRISFTRDTSKNQFFLQLNSLTTEDTATYYCLRGTDRSFDYWGQGTTLTVSS
VL: DIVMSQSPSSLVVSVGEKISMSCKSSQSLLYSNNQKNYLAWYQQIPGQSPKLLIYWASTRESGVPDRFTGSGSGTDFTLTISSVKAEDLAVYYCQQYYIYPLTFGSGTKLEIKR
B12: KH19 (antibody, mouse IgG2b, kappa, V domains shown)
VH: DVQLQESGPDLVKPSQSLSLTCTVTGHSITNGYSWHWIRQFPGNKLEWMGYIHHSGSTNYNPSLKSRISFTRDTSKNQFFLQLNSLTTEDTATYYCLRGTDRSFDYWGQGTTLTVSS
VL: DIVMSQSPSSLAVSVGEKVTVSCKSSQSLLYSSDQKNYLTWYQQKPGQSPKLLIYWASTRESGVPDRFTGGGSGTDFTLTISSVRAEDLAVYYCQQYFIYPFTFGSGTKLEIKR
B13: KH14 (antibody, mouse IgG2b, kappa, V domains shown)
VH: DVQLQESGPDLVKPSQSLSLTCTVTGHSITNGYSWHWIRQFPGNKLEWMGYIHHSGSTNYNPSLKSRISFTRDTSKNQFFLQLNSLTTEDTATYYCLRGTDRSFDYWGQGTTLTVSS
VL: DIVMSQSPSSLAVSVGENITMTCKSSQSLLYSNNQKNYLTWYQQNPGQSPKLLIYWASTRESGVPDRFTGSGSGTDFTLTISSVKAEDLAVYYCQQYYIYPFTFGSGTKLEIKR
B14: KH24 (antibody, mouse IgG2b, kappa, V domains shown)
VH: DVQLQESGPDLVKPSQSLSLTCTVTGHSITSGYTWHWIRQFPGNKLEWMGYIHHSGATNYNPSLKSRISFTRDTSKNQFFLQLNSLTTEDTATYYCLRGTDRSFDYWGQGTTLTVSS
VL: DIVMSQSPSSLTVSVGEKITMSCKSSQSLLYSSDQKNYLAWYQQNPGQSPKLLIYWASTKASGVPDRFTGSGSGTDFTLTISSVKAEDLAVYYCQQYYIYPLTFGSGTKLEIKR
B15: KH23 (antibody, mouse IgG2a, kappa, V domains shown)
VH: DVQLQESGPDLVKPSQSLSLTCTVTGHSITRGYSWHWIRQFPGNKLEWMGYIHHRGTTNYNPSLKSRISFTRDTSKNQFFLQLNSLTTEDTATYFCSRGTNSAFDYWGQGTTLTVSS
VL: DIVMSQSPSSLVVSVGEKISMSCKSSQSLLYSNNQKNYLAWYQQIPGQSPKLLIYWASTRESGVPDRFTGSGSGTDFTLTISSVKAEDLAVYYCQQYYIYPLTFGSGTKLEIKR
B16: KH21 (antibody, mouse IgG2a, kappa, V domains shown)
VH: DVQLQESGPDLVKPSQSLSLTCTVTGHSITRGYSWHWIRQFPGNKLEWMGYIHHRGTTNYNPSLKSRISFTRDTSKNQFFLQLNSLTTEDTATYFCSRGTNSAFDYWGQGTTLTVSS
VL: DIVMSQSPSSLTVSVGEKITMSCKSSQSLLYSSDQKNYLAWYQQNPGQSPKLLIYWASTKASGVPDRFTGSGSGTDFTLTISSVKAEDLAVYYCQQYYIYPLTFGSGTKLEIKR
B17: KH26 (antibody, mouse IgG2b, kappa, V domains shown)
VH: DVQLQESGPDLVKPSQSLSLTCTVTGHSITRGYSWHWIRQFPGNKLEWMGYIHHRGSTNYNPSLKSRISFTRDTSKNQFFLQLNSLTTEDTATYFCSRGTNSAFDYWGQGTTLTVSS
VL: DIVMSQSPSSLAVSIGEKVTMNCQSSQSLLYSSNQKNYLVWYQQKPGQSPKLLIHWASTRESGVPDRFTGSGSGTDFTLTISSVKAEDLAVYYCQQYYIYPFTFGSGTKLEIKR
B18: KH11 (antibody, mouse IgG2a, kappa, V domains shown)
VH: DVQLQESGPDLVKPSQSLSLTCTVTGHSITRGYSWHWIRQFPGNKLEWMGYIHHRGSTNYNPSLKSRISFTRDTSKNQFFLQLNSLTTEDTATYFCSRGTNSAFDYWGQGTTLTVSS
VL: DIVMSQSPSSLTVSVGEKITMSCKSSQSLLYSSDQKNYLAWYQQIPGQSPKLLIYWASTKASGVPDRFTGSGSGTDFTLTISSVKAEDLAVYYCQQYYIYPLTFGSGTKLEIKR
B19: KH25 (antibody, mouse IgG2b, kappa, V domains shown)
VH: DVQLQESGPDLVKPSQSLSLTCTVTGHSITRGYSWHWIRQFPGNKLEWMGYIHHRGSTNYNPSLKSRISFTRDTSKNQFFLQLNSLTTEDTATYFCSRGTNSAFDYWGQGTTLTVSS
VL: DIVMSQSPSSLVVSVGEKISMSCKSSQSLLYSNNQKNYLAWYQQIPGQSPKLLIYWASTRESGVPDRFTGSGSGTDFTLTISSVKAEDLAVYYCQQYYIYPLTFGSGTKLEIKR
B20: KH29 (antibody, mouse IgG2b, kappa, V domains shown)
VH: DVQLQESGPDLVKPSQSLSLTCTVTGHSITRGYSWHWIRQFPGNKLEWMGYIHHRGTTNYNPSLKNRISFTRDTSKNQFFLQLNSLTTEDTATYFCSRGTNSAFDYWGQGTTLTVSS
VL: DIVMSQSPSSLAVSVGEKVTLNCKSSQSLLYSKNQKNYSAWYQQKPGQSPKLLIYWASTRESGVPDRFTGSGSGTDFTLTISSVKAEDLAVYYCQQYYIYPLTFGAGTKLELKR
B21: KH30 (antibody, mouse IgG2b, kappa, V domains shown)
VH: DVQLQESGPDLVKPSQSLSLTCTVTGHSITRGYSWHWIRQFPGNKLEWMGYIHHRGTTNYNPSLKSRISFTRDTSKNQFFLQLNSLTTEDTATYFCSRGTNSAFDYWGQGTTLTVSS
VL: DIVMSQSPSSLAVSVGEKVTLNCKSSQSLLYSKNQKNYSAWYQQKPGQSPKLLIYWASTRESGVPDRFTGSGSGTDFTLTISSVKAEDLAVYYCQQYYIYPLTFGAGTKLELKR

The chains behind the UniProt entries cited, without tags or fusion partners. Residues count along the entry.
UniProt P25063, residues 27-59: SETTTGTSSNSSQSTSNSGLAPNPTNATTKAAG

No constants are given. Whether binding was seen depends on the method and setting. Some entries that bind do so weakly or less than the wild type.

This experiment has as its target CD24 (human) (UniProt P25063). In words: flow cytometry, 5 µg/ml antibody on CD24-high CHO/293 engineered cells and human tumor cells (A549, MCF-7, Ovcar-3, B-cell lymphoma, colorectal cancer).
Consider B1, for which the binding result was “binds”. As for B2, the entry is “binds”; as for B3, “binds”; as for B4, “binds”. Take B5: the binding entry is reported as “binds”.

Consider B6, for which the binding result is given as “binds”.

B7: the binding entry was “binds”. As to B8, the binding entry was “binds”. As for B9, the entry is “binds”. As for B10, the entry is “binds”; as for B11, “binds”; as for B12, “binds”. As for B13, the entry is “binds”; as for B14, “binds”. B15: the binding result is listed as “binds”. The entry for B16 is “binds”; for B17 it is “binds”. As for B18, the entry is “binds”; as for B19, “binds”; as for B20, “binds”. In the case of B21, the binding entry is on record as “binds”.

The values are drawn from patent US20250263500A1.
